Source: PubChem BioAssay AID274 (DTP/NCI, 2004)
The list is a part of this screen's results and no random one: it gathers tests that were run many times, whatever their T/C, doses with no T/C, and many T/C values between a quarter and a half above the control. Further doses and runs are listed elsewhere. T/C gives the treated animals as a percentage of the vehicle group. Some entries give survivors of the animals treated and no T/C: the source holds a T/C of zero for them, seemingly a mark for toxic or unscored doses. Some doses without a T/C left all or most animals alive at the check, yet need not have been tolerated: survival well below the control is almost never listed, so the zero probably covers shortened survival too. Survivors were counted at the toxicity check, usually on the fifth day, unless a day is given; later deaths do not show. Schedules are NCI's codes, read here as Q, the interval in days (D) or hours (H), X, the number of doses. Some doses were run more than once; their values stand side by side, smallest first. For survival time, this PubChem deposit counts one and a half times the control or more as active, and values a quarter to a half above the control carry no call in these data; other NCI protocols may use other cut-offs. Some T/C values carry the count of animals alive at the toxicity check (mostly the fifth day); where none is given, no animal had died by that day. Signs of the kind (2×) say how often a value occurs here. Numbered stars: 1 amine (or outer) side, 2 acyl side, 3 side chain; on linkers, the order of the positions; unused ones are H or OH. Bridge positions count the residues as written; N and C are the ends. Square brackets hold non-standard residues; d marks the D form. Peptide text beside a SMILES is read from it. I, II: the chains in the order shown. Actinocin(1to9) = Cc1c2oc3c(C)ccc(C(=O)[*:2])c3nc-2c(C(=O)[*:1])c(N)c1=O; NMeV = CN[CH](C(=O)O)C(C)C; Aze = O=C(O)[CH]1CCN1; Sar = CNCC(=O)O

System: BDF1 mice, Lewis lung carcinoma iv, survival T/C
Assay: NCI In Vivo Anticancer Drug Screen. Data for tumor model Lewis Lung Carcinoma (intravenous) in B6D2F1 (BDF1) mice
Conditions: T/C endpoint: median survival time, higher T/C = longer survival
Procedure: The antitumor activity of compounds was measured in mice bearing transplantable tumors. Survival or tumor size were measured and the results are expressed as the measurement made in the treated group (T) divided by the measurement made in the vehicle treated control group (C). The tumor model used in this assay is Lewis Lung Carcinoma (intravenous) in B6D2F1 (BDF1) mice

[1] = dose: 32.0 mg/kg/injection, schedule: Q01DX009 (ip), vehicle: saline
[2] = dose: 200.0 mg/kg/injection, schedule: Q01DX009 (ip), vehicle: saline
[3] = dose: 20.0 mg/kg/injection, schedule: Q01DX001 (ip), vehicle: saline
[4] = dose: 400.0 mg/kg/injection, schedule: Q01DX009 (ip), vehicle: saline

SMILES: CCN1C[C@]2(COC)[C@H](O)C[C@H](OC)[C@]34C1[C@H]([C@H](OC)[C@H]23)[C@]1(OC(C)=O)[C@H]2[C@@H](OC(=O)c3ccccc3)[C@](O)(C[C@H]24)[C@@H](OC)[C@@H]1O
- T/C (dose: 0.13 mg/kg/injection, schedule: Q01DX009 (ip), vehicle: Klucel (hydroxypropylcellulose) (HPC)): 126 % of control
- survivor count (dose: 0.25 mg/kg/injection, schedule: Q01DX009 (ip), vehicle: Klucel (hydroxypropylcellulose) (HPC)): 1 of 10 and 8 of 10
- survivor count (dose: 0.5 mg/kg/injection, schedule: Q01DX009 (ip), vehicle: Klucel (hydroxypropylcellulose) (HPC)): 3 of 10
- survivor count (dose: 1.0 mg/kg/injection, schedule: Q01DX009 (ip), vehicle: Klucel (hydroxypropylcellulose) (HPC)): 0 of 10

SMILES: Cc1c(N)nc([C@H](CC(N)=O)NC[C@H](N)C(N)=O)nc1C(=O)N[C@H](C(=O)N[C@H](C)[C@@H](O)CC(=O)N[C@H](C(=O)NC(O[C@@H]1O[C@@H](C)[C@@H](N)[C@@H](O)[C@H]1O)C(O)c1nc(-c2nc(C(=O)NCCCCN)cs2)cs1)[C@@H](C)O)[C@@H](O[C@@H]1O[C@@H](CO)[C@@H](O)[C@H](O)[C@@H]1O[C@H]1O[C@H](CO)[C@@H](O)[C@H](OC(N)=O)[C@@H]1O)c1c[nH]cn1 (stereo partly specified)
- T/C (dose: 4.0 mg/kg/injection, schedule: Q01DX009 (ip), vehicle: saline): 144 % of control
- T/C (dose: 8.0 mg/kg/injection, schedule: Q01DX009 (ip), vehicle: saline): 135 % of control
- T/C (dose: 16.0 mg/kg/injection, schedule: Q01DX009 (ip), vehicle: saline): 148 % of control
- survivor count [1]: 10 of 10

SMILES: O=C(Nc1cccc(Cl)c1)ON1C(=O)C2C(C1=O)C1(Cl)C(Cl)C(Cl)C2(Cl)C1(Cl)Cl (stereo unspecified)
- survivor count (dose: 100.0 mg/kg/injection, schedule: Q01DX009 (ip), vehicle: saline with Tween-80): 8 of 10
- survivor count (dose: 400.0 mg/kg/injection, schedule: Q01DX009 (ip), vehicle: saline with Tween-80): 1 of 10

SMILES: Cc1c2oc3c(C)ccc(C(=O)NC4C(=O)NC(C(C)C)C(=O)N5CCCC5C(=O)N(C)CC(=O)N(C)C(C(C)C)C(=O)OC4C)c3nc-2c(C(=O)NC2C(=O)NC(C(C)C)C(=O)N3CCC3C(=O)N(C)CC(=O)N(C)C(C(C)C)C(=O)OC2C)c(N)c1=O (stereo unspecified) (I: TV[Aze][Sar][NMeV] / II: TVP[Sar][NMeV]; ester I:1-I:C, II:1-II:C; linker I:N-II:N via Actinocin(1to9); configuration not given here)
- survivor count (dose: 150.0 micrograms/kg/injection, schedule: Q01DX009 (ip), vehicle: saline + alcohol): 10 of 10
- survivor count (dose: 300.0 micrograms/kg/injection, schedule: Q01DX009 (ip), vehicle: saline + alcohol): 10 of 10
- survivor count (dose: 600.0 micrograms/kg/injection, schedule: Q01DX009 (ip), vehicle: saline + alcohol): 3 of 10
- T/C (dose: 750.0 micrograms/kg/injection, schedule: Q04DX003 (ip), vehicle: saline + alcohol): 130 % of control
- survivor count (dose: 900.0 micrograms/kg/injection, schedule: Q04DX003 (ip), vehicle: saline + alcohol): 8 of 8
- survivor count (dose: 1200.0 micrograms/kg/injection, schedule: Q01DX009 (ip), vehicle: saline + alcohol): 1 of 10
- survivor count (dose: 1250.0 micrograms/kg/injection, schedule: Q04DX003 (ip), vehicle: saline + alcohol): 8 of 8
- survivor count (dose: 1500.0 micrograms/kg/injection, schedule: Q04DX003 (ip), vehicle: saline + alcohol): 8 of 8
- survivor count (dose: 1800.0 micrograms/kg/injection, schedule: Q01DX001 (ip), vehicle: saline + alcohol): 5 of 8
- survivor count (dose: 3000.0 micrograms/kg/injection, schedule: Q01DX001 (ip), vehicle: saline + alcohol): 0 of 8

SMILES: COC(=O)Nc1cccc(-c2nc3ccc(NC(=O)OC)cc3c(=O)n2-c2ccccc2)c1
- survivor count (dose: 128.0 mg/kg/injection, schedule: Q01DX009 (ip), vehicle: Klucel (hydroxypropylcellulose) (HPC)): 1 of 10
- survivor count (dose: 256.0 mg/kg/injection, schedule: Q01DX009 (ip), vehicle: Klucel (hydroxypropylcellulose) (HPC)): 9 of 10
- survivor count (dose: 256.0 mg/kg/injection, schedule: Q01DX009 (ip), vehicle: saline): 4 of 10

SMILES: CC(=O)NC(CCc1ccc(Cl)c(Cl)c1)c1cccc(O)c(=O)c1 (stereo unspecified)
- survivor count (dose: 100.0 mg/kg/injection, schedule: Q01DX009 (ip), vehicle: Klucel (hydroxypropylcellulose) (HPC)): 10 of 10

SMILES: OC(CBr)C(O)C(O)C(O)CBr (stereo unspecified)
- T/C (dose: 25.0 mg/kg/injection, schedule: Q01DX009 (ip), vehicle: Klucel (hydroxypropylcellulose) (HPC)): 134 % of control

SMILES: Cc1cc2nc(Cc3nc4cc(C)c(C)cc4[nH]3)[nH]c2cc1C
- survivor count (dose: 200.0 mg/kg/injection, schedule: Q01DX009 (ip), vehicle: saline with Tween-80): 2 of 10

SMILES: OCCNCCNc1ccnc2cc(Cl)ccc12
- survivor count [2]: 7 of 10

SMILES: CC1CCC(NC(=O)N(CCCl)N=O)CC1 (stereo unspecified)
- T/C (dose: 5.0 mg/kg/injection, schedule: Q01DX001 (ip), vehicle: saline + alcohol): 91, 100 (2×), 103 % of control
- survivor count (dose: 5.0 mg/kg/injection, schedule: Q01DX001 (ip), vehicle: saline): 4 of 8
- T/C (dose: 10.0 mg/kg/injection, schedule: Q01DX001 (ip), vehicle: saline + alcohol): 95, 96 [7 of 8 alive], 100 (2×), 105, 106, 113, 142 % of control
- survivor count (dose: 10.0 mg/kg/injection, schedule: Q01DX001 (ip), vehicle: saline): 5 of 8
- T/C (dose: 20.0 mg/kg/injection, schedule: Q01DX001 (ip), vehicle: saline + alcohol): 92, 95, 99, 110, 123, 128, 162, 235 % of control
- T/C [3]: 128 % of control
- survivor count [3]: 5 of 8
- T/C (dose: 24.0 mg/kg/injection, schedule: Q01DX001 (ip), vehicle: saline with Tween-80): 131 % of control
- T/C (dose: 30.0 mg/kg/injection, schedule: Q01DX001 (ip), vehicle: saline + alcohol): 94, 99, 101, 103, 107, 136, 169, 237 % of control
- T/C (dose: 40.0 mg/kg/injection, schedule: Q01DX001 (ip), vehicle: saline + alcohol): 87, 100, 103 [7 of 8 alive], 104 (2×), 106, 131, 181 % of control
- survivor count (dose: 40.0 mg/kg/injection, schedule: Q01DX001 (ip), vehicle: saline): 3 of 8
- T/C (dose: 50.0 mg/kg/injection, schedule: Q01DX001 (ip), vehicle: saline + alcohol): 100, 105, 131, 235 % of control

SMILES: O=P1(NCCCl)OCCCN1CCCl (stereo unspecified)
- T/C (dose: 129.0 mg/kg/injection, schedule: Q01DX001 (ip), vehicle: saline): 127 % of control
- T/C (dose: 180.0 mg/kg/injection, schedule: Q01DX001 (ip), vehicle: water): 134 % of control
- survivor count [2]: 9 of 10
- survivor count (dose: 300.0 mg/kg/injection, schedule: Q01DX001 (ip), vehicle: water): 8 of 10
- survivor count [4]: 6 of 10
- T/C (dose: 646.0 mg/kg/injection, schedule: Q01DX001 (ip), vehicle: saline): 142 % of control

SMILES: CC[C@H]1CN2CCc3cc(OC)c(OC)cc3[C@@H]2C[C@@H]1C[C@H]1NCCc2cc(O)c(OC)cc21
- survivor count [1]: 6 of 10

SMILES: CN(N=O)C(=O)N[C@@H](C=O)[C@@H](O)[C@H](O)[C@H](O)CO
- T/C (dose: 50.0 mg/kg/injection, schedule: Q01DX009 (ip), vehicle: citric acid): 127 % of control
- survivor count (dose: 200.0 mg/kg/injection, schedule: Q01DX009 (ip), vehicle: citric acid): 9 of 9
- survivor count (dose: 256.0 mg/kg/injection, schedule: Q01DX009 (ip), vehicle: other): 10 of 10
- survivor count (dose: 400.0 mg/kg/injection, schedule: Q01DX009 (ip), vehicle: citric acid): 0 of 10
- survivor count (dose: 512.0 mg/kg/injection, schedule: Q01DX009 (ip), vehicle: other): 10 of 10

SMILES: S=c1c2[nH]cnc2ncn1CCSC1=NC=NC2=NC=NC21 (stereo unspecified)
- survivor count (dose: 100.0 mg/kg/injection, schedule: Q01DX009 (ip), vehicle: saline): 3 of 10
- survivor count [2]: 0 of 10
- survivor count [4]: 0 of 10

SMILES: NC1(C(=O)O)CCCc2ccc(N(CCCl)CCCl)cc21 (stereo unspecified)
- survivor count (dose: 40.0 mg/kg/injection, schedule: Q01DX009 (ip), vehicle: saline with Tween-80): 9 of 10

SMILES: O=C(NCCN1CC1)C(=O)NCCN1CC1
- survivor count (dose: 6.0 mg/kg/injection, schedule: Q01DX009 (ip), vehicle: saline): 10 of 10
